This note sets out measurements from US20100183625A1, “Treatment of Mucositis with Kallikrein Inhibitors” (Dyax Corp., priority 2009, published 2010).

Entries after “also recorded” stand apart in the source; their conditions may differ.

One data set relates to CLIPS peptides of pKal. The data set is described as follows: CLIPS epitope mapping (PEPSCAN-based ELISA). In kind it is binding, human. Background: In an ELISA, binding on a coated surface is turned into a signal by an enzyme label.
The nature of data set [1]: SDS-PAGE / mass spectrometry of expressed IgG: cleavage by host cell protease. As to conditions: expressed in 293T cells, Table 9.

B1: X81-B01: codon optimized and germlined version of X63-G06 as a full length human IgG produced in CHO cells (antibody, chains of the INN, looked up, V domains shown)
VH: EVQLLESGGGLVQPGGSLRLSCAASGFTFSHYIMMWVRQAPGKGLEWVSGIYSSGGITVYADSVKGRFTISRDNSKNTLYLQMNSLRAEDTAVYYCAYRRIGVPRRDEFDIWGQGTMVTVSS
VL: DIQMTQSPSTLSASVGDRVTITCRASQSISSWLAWYQQKPGKAPKLLIYKASTLESGVPSRFSGSGSGTEFTLTISSLQPDDFATYYCQQYNTYWTFGQGTKVEIK
modifications: IgG
notes: codon optimized and germlined version of X63-G06 as a full length human IgG produced in CHO cells
Turning to B1, the CLIPS peptides bound entry in the data set with CLIPS peptides of pKal is “C2, C3, C5 and the C6; also recorded: C2 (positions 81-94), C3 (positions 101-108), C5 (positions 162-178) and C6 (positions 186-197)”.

B2: X67-F10: single point mutation of M142-H08 (P2); HV-CDR3 GGLLLWTRELKSNYFDY (antibody, V domains shown)
VL: QDIQMTQSPSSLSAFVGDRVTITCRASQPIDNYLNWYHQKPGKAPKLLIYAASRLQSGVPSRLSGSGFGTDFTLTISSLQPEDFGNYYCQQSYTVPYTFGGGTKVEIR
VH: EVQLLESGGGLVQPGGSLRLSCAASGFTFSAYSMIWVRQAPGKGLEWVSYIRPSGGRTTYADSVKGRFTISRDNSKNTLYLQMNSLRAEDTAVYYCARGGLLLWTRELKSNYFDYWGQGTLVTVSSASTKGPSVFPLAPSSKS
As to B2, the “Intact as an IgG?” value in data set [1] is listed as “Yes”.

B3: X67-H01: single point mutation of M142-H08 (P2); HV-CDR3 GGLLLWWRELKSNYFDY (antibody, V domains shown)
VL: QDIQMTQSPSSLSAFVGDRVTITCRASQPIDNYLNWYHQKPGKAPKLLIYAASRLQSGVPSRLSGSGFGTDFTLTISSLQPEDFGNYYCQQSYTVPYTFGGGTKVEIR
VH: EVQLLESGGGLVQPGGSLRLSCAASGFTFSAYSMIWVRQAPGKGLEWVSYIRPSGGRTTYADSVKGRFTISRDNSKNTLYLQMNSLRAEDTAVYYCARGGLLLWWRELKSNYFDYWGQGTLVTVSSASTKGPSVFPLAPSSKS
As for B3, the “Intact as an IgG?” value in data set [1] was “No”.

B4: X67-F08: single point mutation of M142-H08 (P2); HV-CDR3 GGLLLWYRELKSNYFDY (antibody, V domains shown)
VL: QDIQMTQSPSSLSAFVGDRVTITCRASQPIDNYLNWYHQKPGKAPKLLIYAASRLQSGVPSRLSGSGFGTDFTLTISSLQPEDFGNYYCQQSYTVPYTFGGGTKVEIR
VH: EVQLLESGGGLVQPGGSLRLSCAASGFTFSAYSMIWVRQAPGKGLEWVSYIRPSGGRTTYADSVKGRFTISRDNSKNTLYLQMNSLRAEDTAVYYCARGGLLLWYRELKSNYFDYWGQGTLVTVSSASTKGPSVFPLAPSSKS
As to B4, the “Intact as an IgG?” value in data set [1] was “No”.
